Source: PMC4599859

Protein sequences, listed by entry. Tags and fused reporters are not part of them. Lines headed by an entry give the natural chain unless they say otherwise; changes in a name come on top.
UniProt Q9FKN7: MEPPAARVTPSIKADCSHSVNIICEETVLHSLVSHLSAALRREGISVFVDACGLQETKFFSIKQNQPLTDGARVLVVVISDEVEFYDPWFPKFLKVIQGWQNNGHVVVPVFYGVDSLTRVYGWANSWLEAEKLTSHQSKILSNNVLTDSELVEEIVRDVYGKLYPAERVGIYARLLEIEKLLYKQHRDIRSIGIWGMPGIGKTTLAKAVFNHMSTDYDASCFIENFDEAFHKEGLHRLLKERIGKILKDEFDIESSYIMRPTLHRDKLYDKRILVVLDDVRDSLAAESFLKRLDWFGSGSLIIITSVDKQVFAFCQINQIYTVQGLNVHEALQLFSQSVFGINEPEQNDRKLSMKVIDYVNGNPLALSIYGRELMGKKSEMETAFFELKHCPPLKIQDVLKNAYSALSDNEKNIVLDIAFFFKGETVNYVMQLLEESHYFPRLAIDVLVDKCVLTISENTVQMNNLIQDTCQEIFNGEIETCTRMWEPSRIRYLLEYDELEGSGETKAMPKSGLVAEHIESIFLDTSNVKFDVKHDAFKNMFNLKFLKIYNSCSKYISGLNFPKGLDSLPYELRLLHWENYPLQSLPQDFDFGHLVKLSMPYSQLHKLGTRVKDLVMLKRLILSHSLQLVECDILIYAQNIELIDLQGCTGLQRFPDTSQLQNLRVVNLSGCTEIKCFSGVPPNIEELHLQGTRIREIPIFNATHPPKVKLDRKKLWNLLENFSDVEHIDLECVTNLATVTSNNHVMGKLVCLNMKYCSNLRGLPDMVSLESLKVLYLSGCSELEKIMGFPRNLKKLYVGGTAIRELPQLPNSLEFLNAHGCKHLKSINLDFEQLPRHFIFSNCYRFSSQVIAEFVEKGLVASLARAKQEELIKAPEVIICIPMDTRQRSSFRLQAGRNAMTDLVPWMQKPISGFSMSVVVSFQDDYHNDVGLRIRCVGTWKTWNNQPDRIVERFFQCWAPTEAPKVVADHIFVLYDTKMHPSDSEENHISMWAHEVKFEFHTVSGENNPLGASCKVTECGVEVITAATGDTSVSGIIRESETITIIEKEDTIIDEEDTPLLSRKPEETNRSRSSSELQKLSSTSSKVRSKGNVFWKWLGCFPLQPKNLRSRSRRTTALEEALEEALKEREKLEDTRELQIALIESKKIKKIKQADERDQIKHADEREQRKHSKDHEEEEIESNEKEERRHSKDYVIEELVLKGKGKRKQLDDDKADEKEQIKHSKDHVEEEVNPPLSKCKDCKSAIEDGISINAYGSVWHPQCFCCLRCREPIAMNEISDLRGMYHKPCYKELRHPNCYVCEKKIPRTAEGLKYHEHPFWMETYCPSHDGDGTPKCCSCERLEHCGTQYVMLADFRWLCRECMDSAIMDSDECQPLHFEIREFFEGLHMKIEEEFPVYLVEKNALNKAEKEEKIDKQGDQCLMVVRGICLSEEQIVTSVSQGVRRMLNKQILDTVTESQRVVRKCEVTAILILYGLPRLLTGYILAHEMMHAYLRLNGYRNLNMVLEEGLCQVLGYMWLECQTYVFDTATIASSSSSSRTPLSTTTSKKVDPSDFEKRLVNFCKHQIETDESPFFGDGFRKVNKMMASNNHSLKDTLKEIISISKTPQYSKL

What was measured:
[1] = target: T1, cLuc-IBR5 (Arabidopsis thaliana) (UniProt Q84JU4); test: split reporter; firefly luciferase complementation imaging (LCI) in N. benthamiana leaves; HSP90 or SGT1b on nLuc, IBR5 on cLuc
T1 sequence: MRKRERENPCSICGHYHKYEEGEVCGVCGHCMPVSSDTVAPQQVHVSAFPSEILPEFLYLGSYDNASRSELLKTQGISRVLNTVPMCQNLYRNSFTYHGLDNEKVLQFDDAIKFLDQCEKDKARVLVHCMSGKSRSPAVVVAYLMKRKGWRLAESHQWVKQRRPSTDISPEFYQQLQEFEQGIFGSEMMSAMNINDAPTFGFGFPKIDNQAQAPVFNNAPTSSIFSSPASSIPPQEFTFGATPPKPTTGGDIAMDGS

[2] = target: T2, IBR5-Myc (Super:IBR5-Myc) in transgenic Arabidopsis plants (Arabidopsis thaliana) (UniProt Q84JU4); test: co-IP; total protein of transgenic Arabidopsis plants expressing Super:IBR5-Myc (with or without Super:SGT1b-Flag); anti-Myc immunoprecipitation; blot with anti-HSP90 or anti-Flag
T2 sequence: T1 sequence

[3] = target: T3, IBR5 (Indole-3-Butyric Acid Response 5) fused with the pGBKT7 vector (Arabidopsis thaliana) (UniProt Q84JU4); test: two-hybrid; IBR5 or IBR5^C129S in pGBKT7 (bait), R protein domains in pGADT7 (prey); yeast AH109; interaction tested on SD-Trp-Leu-His-Ade medium
T3 sequence: T1 sequence

[4] = target: T4, IBR5^C129S fused with the pGBKT7 vector (Arabidopsis thaliana) (UniProt Q84JU4); test: as above
T4 sequence: T1 sequence with C129S

[5] = target: Myc-tagged TIR domain of CHS3 (Super:TIR-Myc) (Arabidopsis thaliana) (UniProt Q9FKN7); test: co-IP; two constructs co-expressed in Arabidopsis mesophyll protoplasts; extract in 150 mM NaCl, 10 mM Tris-HCl pH 7.6, 2 mM EDTA, 0.5% NP-40; anti-Myc beads, 4°C, 2 h; blot with anti-HA or anti-Flag

Molecule: HSP90-nLuc (Arabidopsis thaliana)
binding [1]: binds

Molecule: endogenous HSP90
binding [2]: binds

Molecule: CC domain of RPM1 fused with the pGADT7 vector (Arabidopsis thaliana) (domain or fragment)
binding [3]: no binding
binding [4]: no binding

B2: HA-Flag-IBR5 (35S:HA-Flag-IBR5) in Arabidopsis protoplasts (protein, UniProt Q84JU4 1-257)
chain: T1 sequence
binding [5]: binds

Other lines, results leading:

binding [3]: binds
binding [4]: binds
Molecule: TIR domain of RRS1 fused with the pGADT7 vector (Arabidopsis thaliana) (domain or fragment)

binding [5]: binds
B1: SGT1b-Flag (Super:SGT1b-Flag) in Arabidopsis (protein, UniProt Q9SUT5 1-358)
chain: MAKELAEKAKEAFLDDDFDVAVDLYSKAIDLDPNCAAFFADRAQANIKIDNFTEAVVDANKAIELEPTLAKAYLRKGTACMKLEEYSTAKAALEKGASVAPNEPKFKKMIDECDLRIAEEEKDLVQPMPPSLPSSSTTPLATEADAPPVPIPAAPAKPMFRHEFYQKPEEAVVTIFAKKVPKENVTVEFGEQILSVVIDVAGEEAYHLQPRLFGKIIPEKCRFEVLSTKVEIRLAKAEIITWASLEYGKGQSVLPKPNVSSALSQRPVYPSSKPAKDWDKLEAEVKKQEKDEKLDGDAAMNKFFSDIYSSADEDMRRAMNKSFAESNGTVLSTNWKEVGTKKVESTPPDGMELKKWEY

Positions count from the first letter of the chain named. Results are given in words; binding and its absence hold for the method and conditions named. Binding can be weak; no strength is given. Sequences can lack the tags named with a protein. For some assays here: In cells and extracts the contact can be indirect. Each block holds one molecule with its values, some of them ahead of it.
